Measured values from publication PMC10163288.
The list shows a part of the results.

B1: il2ra_site2_3nfp_normal_mot_HHH_b1_01086_000000225_0001_20_36_H_._HHH_b1_01202_0001_0000200004_0000001_1_af2pred_0001_af2pred_swapped (protein)
chain: SSSSDHEKFALRLLLLEIEVAIEAGDEEKVKRLIELLRRAIERLNDEEMEEELERLERELSSSSS
B2: il2ra_site2_2erj_sap_25_mot_1d6b5438aa0d917bea2962dcb63062e6_0001_1_af2_000000236_0001_39_63_H_._HHH_b2_01936_0001_0000700043_0000001_0_0001_af2pred_0001_1_af2p … (protein)
chain: SSSSSDEEETQERVEELLERAKRIPDLREALKLLEEAAELAAKNDDPELVELVLEEARKHSSSSS
B3: il2ra_site2_2erj_sap_17_mot_HHH_b1_04154_000000022_0001_1_15_H_._HHH_b1_03521_0001_0000100001_0000001_0_0001 (protein)
chain: SSSSSDLHELYRLLNELSHALANGDEELFEKLAEEVRELAEKLQSDNVEEMIRNMEKILHSSSSS
B4: il2ra_site2_3nfp_sap_20_mot_HHH_b1_00041_000000218_0001_43_58_H_._HHH_eva_0362_af2_0001_0000100003_0000001_0_0001 (protein)
chain: SSSSKSEEYLRIALELLREAEEAGDEESARSIAEAIAAAAETHGDEETLREAEELLERLNSSSSS
B5: il2ra_site2_3nfp_sap_22_mot_HHH_b2_06150_000000217_0001_39_53_H_._86920ccf215a9397388743310839e631_0001_1_0001_0000400018_0000001_0_0001 (protein)
chain: SSSSDEERIELLLEAAQLLLENIPDPEERRELEEAREELEREGDPRLVMKLYEIALRIYLSSSSS
B6: il2ra_site1_1z92_sap_18_mot_HHH_b2_04974_000000012_0001_1_17_H_._HHH_b2_04268_af2_0001_0000300036_0000001_1_0001_af2pred_0001_af2pred_swapped (protein)
chain: DEEELERLLRELIPDPELVKTLKRLFERSAELGIPPEKILRALLRAAERAGSEEAAEALEIILRR
B7: il2ra_site1_3nfp_normal_mot_HHH_b2_06121_000000007_0001_22_38_H_._HHH_b2_01497_af2_0001_0000100001_0000001_0_af2pred_0001_af2pred (protein)
chain: SSSSSEVQERVEELLEEAEELIKEGDYEEAREVIEEAHRLIRETGDRELFELLLEAIRRLSSSSS
B8: il2ra_site1_2b5i_normal_mot_HHH_b2_04910_000000118_0001_1_19_H_._HHH_b1_00060_af2_0001_0000500033_0000001_0_af2pred_0001_af2pred (protein)
chain: SSSSSELAEEAWELMREANELFKNGNPEEAHELLEEALRLAREGNNPNLARSIESMLEQAKSSSS
B9: il2ra_site2_2erj_normal_mot_HHH_b1_03609_af2_000000077_0001_42_55_H_._HHH_b1_04774_af2_0001_0000200008_0000001_0 (protein)
chain: SSSSDEEEERVRELLEEARELAKNGNPEEAWEVLREASELAFELGDFELWAEIAELLRELASSSS
B10: il2ra_site2_3nfp_sap_20_mot_HHH_b1_01086_000000225_0001_20_36_H_._HHH_b2_07053_0001_0000600014_0000001_0_0001 (protein)
chain: SSSSELEEYLRAALELAREALEEGDPELARRSLELALLSAEDAGDEEVLEEVEELLREVTSSSSS
B11: il2ra_site2_3nfp_sap_7_mot_73f63e3ba0c5fbd29b02c38bc3203c89_0001_1_000000101_0001_17_33_H_._HHH_b1_06312_0001_0000100001_0000001_0_0001 (protein)
chain: PVEELVEEVAKILGDPEFEETVKRALERLEEEGDEQALEYIEAALALIVEFNDPRLARRLLELLN
B12: il2ra_site1_2b5i_normal_mot_HHH_b2_01648_000000060_0001_42_56_H_._HHH_b1_05011_0001_0000300022_0000001_0 (protein)
chain: SSSSSRFIRRVLEDAREFFKELLEEGDEEALEKLLRELERLLELSRDPAAEELLRELEELLSSSS
B13: il2ra_site1_3nfp_sap_19_mot_HHH_b2_07201_af2_000000232_0001_1_20_H_._HHH_b1_07563_af2_0001_0000500024_0000001_0_0001_af2pred_0001_af2pred_1 (protein)
chain: SSRERLRRAREEGTLEELVERLLRRAAETTGDPERAKRILKSDLKKAGIPPEEVERLVKEAEELR
B14: il2ra_site2_3nfp_normal_mot_HHH_b1_06613_af2_000000098_0001_23_40_H_._HHH_b1_08035_af2_0001_0000100004_0000001_0 (protein)
chain: SSSSDELEELLKQAEELIEEGDPEEARQVLARAADVAYELGDHEAFAEIADLILLVLELESSSSS
B15: il2ra_site1_1z92_sap_29_mot_HHH_b2_01229_000000127_0001_19_35_H_._HHH_b2_00723_0001_0000100001_0000001_0_0001_af2pred_0001_af2pred_1 (protein)
chain: SSSSSTEELLRFLEEQARLKYERGNPEAAEKLIRHAKEEAEFAEDEEVLEELEKLEEELRSSSSS
B16: il2ra_site2_3nfp_sap_17_mot_HHH_b1_03612_af2_000000124_0001_42_57_H_._aee0ae143b6496be80667c74f1cea33a_0001_1_0001_0000300031_0000001_0_0001 (protein)
chain: SSSSDLEELLEELEQLIEEGNAHEAMQLAEEIHKLALKNNDPEALRAVLELYALLAKLYNRSSSS
B17: il2ra_site2_3nfp_sap_20_mot_HHH_b1_05627_af2_000000038_0001_43_56_H_._HHH_b2_05144_0001_0000100002_0000001_1_0001 (protein)
chain: SSSSSSDEAEKYIRAALELAKNIEDPRAARKTVELALKAAESNGDEELFQEAEELLEELSSSSSS
B18: il2ra_site1_1z92_normal_mot_01209686ea234b34325f918445e6eade_0001_af2_000000154_0001_18_33_H_._HHH_b2_04498_0001_0000200011_0000001_0_af2pred_0001_af2pred (protein)
chain: SSSSSDEEERIVEELIEELGGSEEEKEAAEKDAEAARRNGLSEENIRKALEKNIRAALELSSSSS
B19: il2ra_site2_2erj_normal_mot_HHH_b1_00839_000000020_0001_43_57_H_._HHH_b2_05093_0001_0000200001_0000001_0 (protein)
chain: SSSSSDHHEVAERVAELLQEARQIPDPEEREKVLEEARELAEENNNEFLRRFVEYVRRYLSSSSS
B20: il2ra_site2_2erj_normal_mot_HHH_b1_08185_000000063_0001_41_55_H_._HHH_b2_05996_0001_0000100004_0000001_0 (protein)
chain: SSSSSDEIEEEVLELIAEAAHVPDPKEAVEILREALELAEEYGNELLRRYLELSIKDIEGSSSSS
B21: il2ra_site2_3nfp_normal_mot_HHH_b1_05627_af2_000000038_0001_43_56_H_._HHH_b1_04509_0001_0000500028_0000001_0 (protein)
chain: SSSSDKQERYLRAALLVLREAVEHNNPELVQSHAEAAAALAEALRDPEVLREIEEILEELSSSSS
B22: il2ra_site1_2b5i_sap_14_mot_22370d59370c406a0c205a431f537cfa_0001_af2_000000057_0001_1_31_H_._1fb8bc4d5eb7dfe49bc92abe725735fb_0001_1_0002_0000300021_0000001_0_ … (protein)
chain: SSSSSSKAEEARKLLLDLDKKLKELSEEEQKKYLEEAKEKLKKLKHPSLIKIVEAALKKLSSSSS
B23: il2ra_site1_2b5i_sap_22_mot_HHH_b2_01283_af2_000000044_0001_1_16_H_._HHH_b1_00972_af2_0001_0000500028_0000001_0_0001_af2pred_dldesign_0_af2pred (protein)
chain: SSSSSDAAKALELFLEADKLFQAGKEEEAKEKLEEALKVARAAGANLLVRMIESALKQLESSSSS
B24: il2ra_site1_1z92_sap_15_mot_HHH_b1_00738_af2_000000244_0001_43_57_H_._HHH_eva_0006_af2_0001_0000200007_0000001_0_0001_af2pred_0001_af2pred_1_swapped (protein)
chain: SSAEKEFESARKLGIPPERIVRAMVKDVERRDPRLREEAEELLERVERGELPPEEAVKLLMELTE
B25: il2ra_site1_1z92_sap_10_mot_HHH_b1_07537_af2_000000083_0001_43_56_H_._HHH_b1_07363_af2_0001_0000800041_0000001_1_0001 (protein)
chain: SSSSSERQARIVVKIAVEVAKLSEEQKEELEELAEELVKRGLSFLEILKELDRLAVELASSSSSS
B26: il2ra_site1_3nfp_normal_mot_ems_3hC_836_0002_000000087_0001_24_40_H_._9ebc464cd7f6471d5ebf9a8082ac34f1_0001_0001_0000100003_0000001_0 (protein)
chain: DEEEIKERIEELLKRDPEEAHEHAYKLLKEAIQNRDPEKARVVLEALLLVTGDPKVERALETARR
B27: il2ra_site2_2erj_normal_mot_HHH_b1_01129_af2_000000281_0001_18_33_H_._HHH_b1_06416_0001_0000300013_0000001_0 (protein)
chain: SSSSSSDYEERVEELLEQVEESDDLEELYELLNEALRLASEAQNPELLELIWEVVEKHSSSSSSS
B28: il2ra_site2_3nfp_normal_mot_HHH_b1_03557_000000106_0001_41_55_H_._HHH_b2_00561_0001_0000400025_0000001_0_af2pred_0001_1_af2pred_swapped (protein)
chain: SSSSSDEEREEVEELLEEAEHIEDEREVFIVLVEAFFLALELRDPELERLVREFLKEFRSSSSSS
B29: il2ra_site2_2erj_normal_mot_HHH_b2_01455_000000042_0001_1_17_H_._HHH_b1_05944_0001_0000100002_0000001_0_af2pred_0001_af2pred (protein)
chain: SSSSSELEEFIEELKRKFNLSEEAEELLEEAAEFAKEAGVDERLIERALELHAERLAEQLSSSSS
B30: il2ra_site2_2erj_normal_mot_6bd1339e93f6fdda22195c76da45ec5d_0001_000000136_0001_37_51_H_._ems_3hC_696_0001_0000700021_0000001_0_af2pred_0001_af2pred (protein)
chain: LEEDILRAFRIAVELLEKFRDDPEIERLVLEASLELTEAIEENDEEKIERVIEKIEEIKEEADSS
B31: il2ra_site2_3nfp_normal_mot_HHH_b2_06320_000000197_0001_39_53_H_._3e5e4a15067cbc373d7c33478bca156f_0001_af2_0001_0000100002_0000001_0 (protein)
chain: DERELIRELVLSGDPILFAIANVLAEARILGDEEVVEEIEKLIEELEKGELPPEEVLRLVARLLR
B32: il2ra_site2_3nfp_sap_23_mot_HHH_b2_02437_000000052_0001_42_56_H_._HHH_b2_04251_af2_0001_0000200003_0000001_0_0001 (protein)
chain: SSSSSIAEEYLRAALELLRLAVEEGDEEAVEEHTELVRQAAHDQGNPEVEERAEELLRELSSSSS
B33: il2ra_site2_3nfp_normal_mot_HHH_b1_03376_000000004_0001_41_55_H_._HHH_b2_00671_af2_0001_0000300009_0000001_0 (protein)
chain: SSSSDEERLRELLEQVEEAVRKGDEEEARKLVEEATQIAYELRDHEVFFELAEILIRLLNSSSSS
B34: il2ra_site1_1z92_sap_20_mot_ems_3hM_2197_000000181_0001_1_19_H_._HHH_b1_03565_0001_0000100001_0000001_0_0001_af2pred_0001_af2pred_1 (protein)
chain: SSSSDEERSLKRLVKTAVELAGLSEEQQEELEELVEKLIEEGVDFEEAARIIDRRALELSESSSS
B35: il2ra_site2_2erj_normal_mot_HHH_b1_03609_af2_000000077_0001_42_55_H_._HHH_b1_01470_af2_0002_0000700020_0000001_0 (protein)
chain: SSSSSEEVEELLKQAEELIERGNPEEAEEVLRKASERAFELNNFELWAKISELLRELARLESSSS
B36: il2ra_site2_2erj_sap_21_mot_HHH_b2_02430_000000062_0001_23_40_H_._HHH_b2_01184_0001_0000200045_0000001_0_0001 (protein)
chain: SSSSSDALHEAYELANRLTHLVARNDPEQFEEVSERLKELAEELQSENLKEIIENLEKWFSSSSS
B37: il2ra_site2_2erj_sap_29_mot_9b841c8fe2e6d1e24304b827c5c38554_0001_1_af2_000000119_0001_36_49_H_._HHH_b2_06645_0001_0000700054_0000001_0_0001 (protein)
chain: SSSSSSSDREERVEELLERAKEVSLHEAFELAVEAQHIAAKNNDEELLRLIREVIEEHSSSSSSS

Target: il2ra, P01589
Assay: yeast display titration

Apparent Kd, inactive:
B1 no binding seen
B2 no binding seen
B3 no binding seen
B4 no binding seen
B5 no binding seen
B6 no binding seen
B7 no binding seen
B8 no binding seen
B9 no binding seen
B10 no binding seen
B11 no binding seen
B12 no binding seen
B13 no binding seen
B14 no binding seen
B15 no binding seen
B16 no binding seen
B17 no binding seen
B18 no binding seen
B19 no binding seen
B20 no binding seen
B21 no binding seen
B22 no binding seen
B23 no binding seen
B24 no binding seen
B25 no binding seen
B26 no binding seen
B27 no binding seen
B28 no binding seen
B29 no binding seen
B30 no binding seen
B31 no binding seen
B32 no binding seen
B33 no binding seen
B34 no binding seen
B35 no binding seen
B36 no binding seen
B37 no binding seen

Two entries drawn at random from those above, as already listed:
Apparent Kd, inactive:
B36 no binding seen
B24 no binding seen
